No constants are given. Whether binding was seen depends on the method and setting. In cells and extracts the contact can be indirect. Some results given as binding are weak or reduced against the parent protein; the word gives no strength.
Target: T1, PapA-6H4A (E. coli) (UniProt P04127)
T1 sequence: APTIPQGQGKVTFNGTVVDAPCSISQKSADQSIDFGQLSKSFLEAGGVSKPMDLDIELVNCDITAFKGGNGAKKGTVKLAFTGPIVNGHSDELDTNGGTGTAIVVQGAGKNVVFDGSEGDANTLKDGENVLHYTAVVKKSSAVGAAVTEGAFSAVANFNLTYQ
Experiment: co-purification from periplasm on metal affinity resin

B1: PapD chaperone (protein)
chain: AVSLDRTRAVFDGSEKSMTLDISNDNKQLPYLAQAWIENENQEKIITGPVIATPPVQRLEPGAKSMVRLSTTPDISKLPQDRESLFYFNLREIPPRSEKANVLQIALQTKIKLFYRPAAIKTRPNEVWQDQLILNKVSGGYRIENPTPYYVTVIGLGGSEKQAEEGEFETVMLSPRSEQTVKSANYNTPYLSYINDYGGRPVLSFICNGSRCSVKKEK
binding: binds
